Some of the results follow. The main result of the screen is listed elsewhere. These columns were measured beside it and carry no call. The list favours compounds with an active or inconclusive main result. Words in brackets tell the shape of the fitted curve; partial curves, single points and poor fits give uncertain potencies.
Assay: qHTS Assay for Lipid Storage Modulators in Drosophila S3 Cells;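 for cell number change: cells counted by Cell Tracker Red CMTPX staining in the red channel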
Details: BODIPY lipid droplet fluorescence, 18-24 h; for cell number change: measured here: cell count max response, cells fed with added oleic acid
Procedure, shortened: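 Drosophila S3 cells got compounds at several concentrations plus oleic acid (400 uM solution). Laser-scanning cytometry with 488 nm excitation read lipid droplets at 500-530 nm and cells at 575-640 nm. Percent activity was relative to 20 uM Triacsin C.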

[1] = measured here: lipid fluorescence (Fed channel) AC50, cells fed with added oleic acid
[2] = measured here: cell number channel AC50, cells fed with added oleic acid

Structure (SMILES)	cell number change	AC50 [1]	AC50 [2]
CCc1ccc(N2CC(C(=O)Nc3cccnc3)CC2=O)cc1 (stereo not drawn)	4.97%	0.82 µM [rising, full curve, poor fit]	–
S=c1[nH]nc(CSCCOc2ccccc2)o1	-7.13%	–	–
CCOC(=O)c1nn(-c2ccccc2)c(=O)cc1OCC(=O)Nc1cccc(OC)c1	32%	–	2.31 µM [rising, full curve, poor fit]
COc1ccc2nc(NC(=O)C3CCN(C(=O)c4ccco4)CC3)sc2c1	2.1%	–	–
COc1ccc(CCNC(=O)c2ccc3c(c2)N(Cc2ccc(F)cc2)CCS3)cc1OC	-35.8%	0.184 µM [falling, partial curve]	9.2 µM [falling, partial curve, poor fit]
Cn1c(-c2ccc(F)cc2)cc2onc(-c3ccccc3Cl)c2c1=O	-23.4%	0.461 µM [rising, partial curve, poor fit]	–
O=C(OCn1ncc(Br)c(Br)c1=O)c1ccccc1Cl	-92.3%	0.731 µM [falling, single point]	16.4 µM [falling, partial curve]
Cc1cc(C)cc(NC(=O)c2cccc3c2C(=O)N(C2CCCCC2)C3)c1	–	5.17 µM [rising, single point]	–
CC(=O)NCc1ccc(-c2csc(NC(=O)CCCc3nc4ccccc4c(=O)[nH]3)n2)cc1	-5.36%	6.51 µM [falling, single point]	–
CC(C(=O)N(C)C1CCS(=O)(=O)C1)N1C(=O)/C(=C/c2cccs2)SC1=S (stereo not drawn)	22.9%	–	–
CCCCN=C1NN=C(c2cccc([N+](=O)[O-])c2)CS1	13.6%	14.6 µM [rising, partial curve]	0.0291 µM [falling, full curve, poor fit]
COc1ccc(/C=N/n2c(-c3ccccc3)n[nH]c2=S)cc1	-15.7%	0.58 µM [rising, single point]	–
CCNC(=S)NNC(=O)c1cc(C)nc2ccccc12	10.1%	29.1 µM [rising, single point]	–
CCCN1C(=O)c2ccccc2NC1c1ccc(C)cc1 (stereo not drawn)	11.6%	1.84 µM [rising, partial curve, poor fit]	–
COCCNc1nc(-c2cc3ccccc3o2)cs1	–	18.4 µM [rising, single point]	–
Cc1ccc(C)c(NC(=S)NCc2cccn2C)c1	-8.99%	20.6 µM [falling, single point]	–
CCc1c(C)sc(NC(=O)Cn2nc(C)c([N+](=O)[O-])c2C)c1C(N)=O	-10.1%	0.366 µM [falling, partial curve, poor fit]	0.146 µM [falling, full curve, poor fit]
O=C(Nc1cccnc1)c1cc(-c2ccc(Cl)c(Cl)c2)on1	11.8%	2.31 µM [rising, full curve]	–
CCC(=O)Nc1cc(Cl)ccc1N1CCN(C(=O)CC)CC1	–	0.461 µM [rising, partial curve, poor fit]	–
O=C(O)CSc1cc(NS(=O)(=O)c2ccc(Cl)cc2)c2ccccc2c1O	-9.72%	0.58 µM [falling, single point]	–

Taken from above.
CCc1c(C)sc(NC(=O)Cn2nc(C)c([N+](=O)[O-])c2C)c1C(N)=O – cell number change: -10.1%
CCCCN=C1NN=C(c2cccc([N+](=O)[O-])c2)CS1 – AC50 [2]: 0.0291 µM [falling, full curve, poor fit]

Next part:

Structure (SMILES)	cell number change	AC50 [1]	AC50 [2]
COc1ccc(CCNC(=O)CSc2nnc(CNC(=O)c3c(F)cccc3Cl)o2)cc1OC	-10.2%	–	–
O=C1C2=C(NC(=S)NC2c2ccc(Cl)cc2)NC(c2ccc(Cl)cc2)N1c1ccc(Cl)cc1 (stereo not drawn)	-53.8%	29.1 µM [falling, single point]	29.1 µM [falling, single point]
Nc1c(N(Cc2ccco2)C(=O)c2ccc(Cl)cc2)c(=O)[nH]c(=O)n1Cc1ccccc1	-20.9%	7.31 µM [rising, full curve, poor fit]	–
COc1ccc(CNC(=O)COC(=O)c2ccc(F)c(S(=O)(=O)N3CCCCC3)c2)cc1OC	-9.96%	23.1 µM [falling, single point]	–
Cc1cc2c(c(=O)o1)C(CCC1CCCCC1)C(C#N)=C(N)O2 (stereo not drawn)	0.234%	6.51 µM [falling, single point]	–
O=C(NCCC1=CCCCC1)c1ccc2c(=O)n3c(nc2c1)CCCCC3	–	0.92 µM [falling, full curve]	–
Cc1nc2ccccc2c(=O)n1Nc1cccc(Cl)c1	23.8%	0.058 µM [rising, full curve, poor fit]	–
COc1cccc(NC(=O)c2cccc(C(=O)Nc3cccc(OC)c3)n2)c1	-23.3%	7.31 µM [falling, partial curve]	–
O=C(CN1CCCN(S(=O)(=O)c2ccc(Br)s2)CC1)Nc1ccc(Cl)cc1	86.8%	–	20.6 µM [rising, single point]
Cc1ccc2[nH]c(=O)c(COC(=O)c3ccccn3)cc2c1	-15%	23.1 µM [rising, single point]	–
O=C(CSCc1cnn(-c2ccccc2)c1-n1cccc1)NCC1CCCO1 (stereo not drawn)	10%	0.00411 µM [rising, full curve, poor fit]	–
COc1ccc2[nH]cc(C(=O)C(=O)N3CCCCC3)c2c1	15.1%	–	–
CCC1CCCCN1c1ccc([N+](=O)[O-])cc1/C=N/NC(=O)Cn1c2ccccc2c(=O)c2ccccc21 (stereo not drawn)	49.9%	–	25.9 µM [rising, single point]
Cc1ccccc1NC(=O)CSc1ccncc1	-54.2%	5.17 µM [falling, full curve]	5.8 µM [falling, full curve]
C=CCN(C(=O)c1csnn1)C(C(=O)NC1CCCC1)c1ccc(OC)cc1 (stereo not drawn)	-2.56%	29.1 µM [rising, single point]	–
CCc1ccc(NC(=O)CN(c2cccc(C)c2)S(C)(=O)=O)cc1	–	13 µM [rising, partial curve]	6.51 µM [rising, single point]
COc1ccc(CCN2CC(C(=O)OCC(=O)Nc3c(C)nn(-c4ccccc4)c3C)CC2=O)cc1OC (stereo not drawn)	2.81%	–	–
Cc1ccc(S(=O)(=O)NCC(=O)N2CCOCCOCCOCCOCC2)cc1	25.7%	0.116 µM [rising, full curve, poor fit]	–
Brc1ccc(-c2nnc3ccc(Nc4ccccc4)nn23)cc1	14.9%	0.259 µM [rising, full curve, poor fit]	–
c1ccc2c(c1)OCCOCCOCCO2	–	6.51 µM [rising, single point]	–

Structure (SMILES)	cell number change	AC50 [1]	AC50 [2]
O=C(Nc1ccc(-c2cn3ccccc3n2)cc1)c1ccc(Cl)cc1	-22.4%	29.1 µM [falling, single point]	–
COC(=O)c1nc(N)sc1-c1ccccc1	–	0.651 µM [rising, partial curve]	0.58 µM [rising, partial curve]
C=CCSc1nc(C)c(CC(=O)OCC(C)C)c(=O)[nH]1	-31.4%	1.64 µM [falling, partial curve]	32.6 µM [falling, single point]
Cc1ncc([N+](=O)[O-])n1CC(=O)Nc1ccc(OC(F)(F)Cl)cc1	-1.39%	–	–
CCOc1cc(S(=O)(=O)n2c(C)nc3ccccc32)ccc1F	-16.6%	5.17 µM [falling, full curve]	–
Nc1nc2nc(SCC(=O)N3CCCc4ccccc43)[nH]c2c(=O)[nH]1	9.43%	–	–
O=C(NC1=NCCS1)C1Cc2ccccc2CN1C(=O)c1ccccc1 (stereo not drawn)	-32.1%	0.259 µM [rising, full curve, poor fit]	0.103 µM [falling, full curve, poor fit]
CCc1nnc2c(N(C)S(=O)(=O)c3ccc(C)cc3)nc3ccccc3n12	-7.25%	–	–
O=C(O)c1cc(NS(=O)(=O)c2ccc(NCc3ccccc3)c([N+](=O)[O-])c2)cc(C(=O)O)c1	12.6%	18.4 µM [falling, single point]	–
Cc1ccccc1CN(C)C(=O)[C@H](Cc1ccccc1)NC(=O)c1ccco1	-13.5%	0.517 µM [falling, full curve]	–
Cc1ccc(-c2nnn(CC(=O)N3CCC(C)CC3)n2)o1	–	6.51 µM [falling, single point]	6.51 µM [falling, single point]
CSc1nc2c(c(=O)[nH]1)C(c1ccc(C(F)(F)F)cc1)CC(=O)N2 (stereo not drawn)	-8.8%	6.51 µM [falling, single point]	0.731 µM [falling, single point]
O=C(Oc1ccc(Br)cc1)C1CCN(C2=NS(=O)(=O)c3ccccc32)CC1	-7.9%	–	–
Nc1c(Cl)cc(C2=NCCn3nc4cc([N+](=O)[O-])ccc4c32)cc1Cl	–	18.4 µM [falling, partial curve]	–
Cc1cccc(OCC(=O)Nc2ccc3c(c2)nc(CCN2CCN(c4ccccn4)CC2)n3C)c1	14.9%	1.46 µM [rising, full curve]	2.06 µM [rising, partial curve]
O=C(COc1ccc(F)cc1F)NNC(=O)Nc1cccc([N+](=O)[O-])c1	-19.3%	29.1 µM [falling, single point]	–
COCc1ccc(C(=O)N2CCCC(N3CCN(c4ccc(F)cc4)CC3)C2)o1 (stereo not drawn)	22%	16.4 µM [rising, single point]	–
Cc1ccc(S(=O)(=O)N(CC(=O)O)Cc2ccccc2)cc1	16.5%	6.51 µM [falling, single point]	–
Cc1ccc(NC(=O)CN(CCc2ccccc2)S(C)(=O)=O)cc1	8.77%	–	–
Cn1c(=O)c2c(SCC(=O)c3ccccc3)nc(C3CC3)nc2n(C)c1=O	-1.29%	0.461 µM [rising, full curve, poor fit]	–

Entries of single compounds, quoted from the list.
CC(C(=O)N(C)C1CCS(=O)(=O)C1)N1C(=O)/C(=C/c2cccs2)SC1=S (stereo not drawn) is listed as cell number change: 22.9%
O=C(Nc1ccc(-c2cn3ccccc3n2)cc1)c1ccc(Cl)cc1 is listed as cell number change: -22.4%; AC50 [1]: 29.1 µM [falling, single point]

— PubChem BioAssay AID2685 (National Center for Advancing Translational Sciences (NCATS), 2010)
